The experiment addresses Ssu72 (UniProt Q9NP77). Briefly: co-IP; lysates of transfected NIH-3T3 cells immunoprecipitated with anti-FLAG antibody; immunoblotted with anti-p-STAT3 Tyr705, anti-p-STAT3 and anti-Ssu72 antibodies. (In western blotting, separated proteins are transferred to a membrane and probed.)

By UniProt entry, the sequences of proteins in these tests, tags left out.
UniProt Q9NP77: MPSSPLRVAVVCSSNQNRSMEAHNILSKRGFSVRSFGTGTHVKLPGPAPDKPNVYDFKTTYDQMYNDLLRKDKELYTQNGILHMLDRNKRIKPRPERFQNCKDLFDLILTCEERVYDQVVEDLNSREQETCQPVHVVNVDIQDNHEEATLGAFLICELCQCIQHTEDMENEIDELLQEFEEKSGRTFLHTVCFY
UniProt P42227: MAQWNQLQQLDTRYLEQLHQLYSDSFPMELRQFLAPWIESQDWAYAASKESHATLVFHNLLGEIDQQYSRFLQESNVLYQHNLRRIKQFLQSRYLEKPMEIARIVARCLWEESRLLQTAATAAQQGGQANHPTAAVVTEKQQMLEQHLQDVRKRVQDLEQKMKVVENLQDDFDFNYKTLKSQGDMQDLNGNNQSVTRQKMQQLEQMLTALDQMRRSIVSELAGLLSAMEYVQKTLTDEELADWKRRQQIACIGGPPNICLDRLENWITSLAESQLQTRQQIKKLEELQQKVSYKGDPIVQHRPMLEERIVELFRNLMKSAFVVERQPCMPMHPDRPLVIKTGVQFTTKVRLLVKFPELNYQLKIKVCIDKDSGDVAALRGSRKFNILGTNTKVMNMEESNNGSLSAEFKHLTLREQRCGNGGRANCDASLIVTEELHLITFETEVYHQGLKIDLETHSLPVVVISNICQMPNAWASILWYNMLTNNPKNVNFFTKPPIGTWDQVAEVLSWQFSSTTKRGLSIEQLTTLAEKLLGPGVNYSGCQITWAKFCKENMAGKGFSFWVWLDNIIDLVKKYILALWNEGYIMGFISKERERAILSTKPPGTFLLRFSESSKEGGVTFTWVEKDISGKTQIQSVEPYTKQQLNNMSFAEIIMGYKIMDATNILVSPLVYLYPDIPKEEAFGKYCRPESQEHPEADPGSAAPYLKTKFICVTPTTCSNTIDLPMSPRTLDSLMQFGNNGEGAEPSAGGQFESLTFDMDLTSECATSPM

These are yes or no findings as the source states them, for the method shown. In cells and extracts the contact can be indirect. Some entries that bind do so weakly or less than the wild type.

This passage reports binding results from publication PMC5511296.

For “Signal transducer and activator of transcription 3 (from UniProt P42227 1-770)”, the binding result was “binds”.
